HELM strings list residues between dots; [ac] is acetyl, [am] amide, other brackets name non-standard units.

This data set in a line: general procedure: Boc solid-phase peptide synthesis; Boc-Gly-resin; p-nitrophenyl ester; DCC/HOBT for 8+1 solution coupling. Conditions: for cyclisation yield: cyclisation step; for step yield: coupling step; for isolated yield / crude mass / isolated mass: whole synthesis.

In the case of “PEPTIDE1{[Pmp].[D-Tyr(Et)].F.V.N.C.P.R.G.[NHMe]}$PEPTIDE1,PEPTIDE1,1:R3-6:R3$$$V2.0”, the cyclisation yield is 38.7%.

“PEPTIDE1{[Pmp].[Tyr(Me)].F.Q.N.C.P.R.G.[NHBu]}$PEPTIDE1,PEPTIDE1,1:R3-6:R3$$$V2.0”: the cyclisation yield was 48.3%.

As for “PEPTIDE1{[d(CH2)5].[Tyr(Me)].F.Q.N.C.P.R.A.[am]}$PEPTIDE1,PEPTIDE1,1:R3-6:R3$$$V2.0”, the step yield worked out at 84.2%.

Consider “beta-(S-Benzylmercapto)-beta,beta-cyclopentamethylenepropionyl-Tyr(Bzl)-Phe-Gln-Asn-Cys(Bzl)-Pro-Arg(Tos)-Gly-NH2”, for which the isolated yield (based on initial Gly content on the resin, scale 0.5 mmol) is recorded as 62.4%. For the setting “scale 0.5 mmol”, this substance gave a crude mass of 723 mg and an isolated mass of 488 mg.

In the case of “beta-(S-Benzylmercapto)-beta,beta-cyclopentamethylenepropionyl-Tyr(Me)-Phe- Gln-Asn-Cys(Bzl)-Pro-Arg(Tos)-Gly-NH2”, the step yield came to 77.3%. Further, for the setting “based upon initial glycine content of the resin, scale 0.4 mmol”, the isolated yield is listed as 50.7%. Besides, for the setting “scale 0.4 mmol”, the crude mass worked out at 410 mg and the isolated mass worked out at 302 mg.

The record behind these values is patent publication US4772586A (Medical College of Ohio, priority 1986, dated 1988).
